Test results from the supplement of paper PMC12823440, “Inhibitors supercharge kinase turnover through native proteolytic circuits” (Nature, 2025).
Counter-ions that a name gives are not always drawn. The list shows a part of the results. Hit calls seldom repeat between salt and free forms of one compound.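 Kinases were expressed as nanoluciferase fusions in K562 cells and luminescence was read every 4 h between 2 and 18 h as percent of control, DMSO set to 100% and a positive control to 0%. A time point counts as decreased when the signal drops significantly (2 sigma). The hit call is the authors' own, does not follow from the count of time points alone, and its rule is not shown.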

The chains behind the UniProt entries cited, without tags or fusion partners. Where a name states a change or a piece, a line headed by the entry shows the natural chain unless it says otherwise.
UniProt Q13546: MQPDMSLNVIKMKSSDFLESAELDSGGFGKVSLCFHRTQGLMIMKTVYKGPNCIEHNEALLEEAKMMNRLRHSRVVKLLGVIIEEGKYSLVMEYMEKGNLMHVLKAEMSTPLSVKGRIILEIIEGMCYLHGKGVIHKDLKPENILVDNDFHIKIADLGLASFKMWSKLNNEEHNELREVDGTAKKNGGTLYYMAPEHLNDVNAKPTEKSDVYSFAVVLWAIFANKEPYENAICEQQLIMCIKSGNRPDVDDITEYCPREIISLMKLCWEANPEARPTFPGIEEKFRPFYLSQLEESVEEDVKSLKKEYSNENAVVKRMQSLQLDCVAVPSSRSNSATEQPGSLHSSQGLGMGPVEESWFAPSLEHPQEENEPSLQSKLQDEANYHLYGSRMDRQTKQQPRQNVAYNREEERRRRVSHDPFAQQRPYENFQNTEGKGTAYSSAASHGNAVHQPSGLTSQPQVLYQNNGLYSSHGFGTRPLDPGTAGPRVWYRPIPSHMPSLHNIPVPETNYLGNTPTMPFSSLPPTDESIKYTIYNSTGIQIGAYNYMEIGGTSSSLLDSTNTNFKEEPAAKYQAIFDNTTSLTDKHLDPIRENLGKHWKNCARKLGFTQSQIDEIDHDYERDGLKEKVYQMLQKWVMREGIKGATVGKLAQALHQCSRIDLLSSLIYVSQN

target: RIPK1 (UniProt Q13546); experiment: number of time points (of 5) at which kinase-Nluc abundance scored as decreased, DMSO-normalised (count); higher = more persistent destabilization; settings: K562; 2-18 h

Structure (SMILES)	number of time points
C[C@@H]1COCCN1c1nc(-c2cnc(N)cc2C(F)F)nc(N2[C@H](C)COC[C@@H]2C)n1 (2.5 µM)	2
O=C(O)c1cc(=O)c2c(OCC(O)COc3cccc4oc(C(=O)O)cc(=O)c34)cccc2o1 [Cromolyn (sodium)] (10 µM)	0
CCc1ccc(OCC(=O)Nc2ccc(F)c([N+](=O)[O-])c2)cc1 (10 µM)	0
CC(C)S(=O)(=O)c1ccc2nccc(Nc3ccc4scnc4c3)c2c1 (10 µM)	0
CN1CC[C@@H](c2c(O)cc(O)c3c(=O)cc(-c4ccc(C(F)(F)F)cc4Cl)oc23)[C@@H]1CO [Voruciclib (hydrochloride)] (10 µM)	0
CC(C)=CC(=O)O[C@H]1Cc2cc3ccc(=O)oc3cc2OC1(C)C [Decursin] (10 µM)	0
CC(C)C[C@@H](C(=O)Nc1ccn(C[C@@H](O)CO)n1)N1CC(Oc2ccccc2Cl)=CC1=O [Dorzagliatin] (10 µM)	0
CC(C)N1CCN(c2ccc(Nc3ncc4cc5n(c4n3)C3(CCCCC3)CNC5=O)nc2)CC1 [Lerociclib (dihydrochloride)] (2 µM)	1
CCCCCCCCCCCCCCCCOP(=O)([O-])OCC[N+](C)(C)C [Miltefosine] (10 µM)	0
COCCNc1cc(NC(=O)N2CCCc3cc(CN4CCN(C)CC4=O)c(C=O)nc32)ncc1C#N [Roblitinib] (10 µM)	0
Cc1ccc(NC(=O)c2ccc(CN(CCN(C)C)C(=O)c3cccnc3)cc2)cc1Nc1nccc(-c2cccnc2)n1 [PDGFRα kinase inhibitor 1] (10 µM)	0
c1ccc(-c2nc(=NCCN3CCOCC3)sn2-c2ccccc2)cc1 [VP3.15 (dihydrobromide)] (10 µM)	0
O=C1NC(=Nc2c(Cl)cccc2Cl)S/C1=C\c1ccc2nccnc2c1 (2.5 µM)	0
Cc1cc(-c2ccnc(Nc3cnn(C)c3)n2)ccc1CNC(=O)N1CC(OC(C)C)C1 (10 µM)	0
CN(C)S(=O)(=O)c1ccc2c(c1)/C(=C/c1cc3c([nH]1)CCCC3)C(=O)N2 (2.5 µM)	0
Cc1cnc(NC2CCOCC2)nc1-n1cnc(C(=O)N[C@H](CN)c2cc(F)cc(Cl)c2)c1 (10 µM)	0
N#CC(c1ccnc(OCc2ccc(CN3CCOCC3)cc2)n1)c1nc2ccccc2s1 (stereo not drawn) [Bentamapimod] (2.5 µM)	0

Pulled one by one from the list above, 2 records:
Structure (SMILES)	number of time points
C[C@@H]1COCCN1c1nc(-c2cnc(N)cc2C(F)F)nc(N2[C@H](C)COC[C@@H]2C)n1 (2.5 µM)	2
Cc1cc(-c2ccnc(Nc3cnn(C)c3)n2)ccc1CNC(=O)N1CC(OC(C)C)C1 (10 µM)	0

Next part

Structure (SMILES)	number of time points
Cc1c(-c2ccc(C(N)=O)c3[nH]c4cc(C(C)(C)O)ccc4c23)cccc1-n1cnc2ccccc2c1=O (2.5 µM)	0
CN(C)c1nc2c(Br)c(Br)c(Br)c(Br)c2[nH]1 (10 µM)	0
Nc1ncnc2c1c(-c1ccc(Oc3ccccc3)cc1)nn2C1CCN(CCOCCOCCOc2ccc3c(c2)CN(C2CCC(=O)NC2=O)C3=O)CC1 (stereo not drawn) (2.5 µM)	0
O=[N+]([O-])c1ccc(Nc2nc(N3CCOCC3)nc(N3CCOCC3)n2)cc1 (10 µM)	0
C[C@H](Nc1ncnc2[nH]cnc12)c1cc2ccc(F)cc2nc1-c1ccccn1 (10 µM)	0
CCc1cccc(CC)c1NC(=O)N1Cc2[nH]nc(NC(=O)c3ccc(N4CCN(C)CC4)cc3)c2C1 (2.5 µM)	2
CCc1cncnc1N1CCN(Cc2nc3ccc(C(F)(F)F)cc3[nH]2)CC1 (10 µM)	0
COc1cc(-c2cn[nH]c2)ccc1C(=O)Nc1ccc2c(c1)CCNCC2 (10 µM)	0
Cn1cc2cc(C(F)(F)c3nnc4ccc(-c5cnn(C6CC6)c5)nn34)c(F)cc2n1 [Bozitinib] (10 µM)	0
O=Nc1c2[nH]c3ccccc3nc-2c2ccccc12 [IQ-1S (free acid)] (2.5 µM)	0
CCN(CC)c1cc2oc(=O)c(-c3nc4ccccc4o3)cc2cc1C (2.5 µM)	0
COc1cc(N2CCOCC2)ccc1NC(=O)c1csc(-c2cccnc2)n1 [IRAK inhibitor 6] (10 µM)	0
CNc1nc(Nc2cn(C(C)(C)C#N)nc2C)ncc1C(F)(F)F (10 µM)	0
COc1nn(C)cc1Nc1nccc(-c2c[nH]c3c(NC(=O)[C@@H](C)N4CCN(C)CC4)cccc23)n1 (10 µM)	0
N#Cc1ccnc(Nc2cc(C3CCN(C4COC4)CC3)cc(N3CCC(F)(F)C3)n2)c1 (2.5 µM)	0
Cc1cccc2c3c(ccc12)C(=O)C1=C(OCC1C)C3=O (stereo not drawn) [Dihydroisotanshinone I] (2.5 µM)	0
